This test relates to BDF1 mice, Adenocarcinoma 755 s.c., tumor weight T/C. The test is described as follows: NCI In Vivo Anticancer Drug Screen. Data for tumor model Adenocarcinoma 755 (subcutaneous) in B6D2F1 (BDF1) mice. The following applies: T/C endpoint: mean tumor weight, higher T/C = larger tumour; for T/C: evaluated on day 12. An outline of the steps:
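Tumor-bearing mice receive test compound while controls get vehicle alone. Antitumor effect is scored from survival or tumor dimensions as a T/C quotient.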

Setting [1] is: dose: 60.0 mg/kg/injection, schedule: Q01DX011 (ip), vehicle: carboxymethylcellulose (CMC).
Where [2] appears, read: dose: 500.0 mg/kg/injection, schedule: Q01DX011 (sc), vehicle: steroid suspending solution.
[3] abbreviates: dose: 6.0 mg/kg/injection, schedule: Q01DX011 (ip), vehicle: carboxymethylcellulose (CMC).
[4] abbreviates: dose: 100.0 mg/kg/injection, schedule: Q01DX011 (ip), vehicle: carboxymethylcellulose (CMC).

The list does not hold the whole screen: it is rich in T/C values a quarter to a half above the control, in often repeated tests (any T/C) and in doses without a T/C. Further doses and runs are listed elsewhere. T/C is the treated group as % of the vehicle group. Schedules are NCI's codes, taken here to give the interval after Q, in days (D) or hours (H), and the number of doses after X. Some T/C values are followed by the survivors on the day toxicity was checked, most often the fifth; where none is given, no animal had died by that day. Some entries hold several experiments; the results are listed from low to high. Some entries give survivors of the animals treated and no T/C: the source holds a T/C of zero for them, seemingly a mark for toxic or unscored doses. Survivors were counted at the toxicity check, usually on the fifth day, unless a day is given; later deaths do not show.

For the compound `Cc1cc(NC(=O)c2ccc(C(=O)Nc3ccc(N=Nc4cc(S(=O)(=O)O)c5cccc(S(=O)(=O)O)c5c4)c(C)c3)cc2)ccc1N=Nc1cc(S(=O)(=O)O)c2cccc(S(=O)(=O)O)c2c1`, the survivor count runs as follows: under setting [1], 4 of 10; (dose: 120.0 mg/kg/injection, schedule: Q01DX011 (ip), vehicle: carboxymethylcellulose (CMC)) 2 of 10; (dose: 240.0 mg/kg/injection, schedule: Q01DX011 (ip), vehicle: carboxymethylcellulose (CMC)) 1 of 10.
As for `O=S(=O)(O)c1cccnc1`, for the setting “dose: 74.73 mg/kg/injection, schedule: Q01DX011 (ip), vehicle: carboxymethylcellulose (CMC)”, the T/C is 142 [9 of 10 alive] and 144 % of control. For the same compound, the survivor count by setting is: (dose: 298.9 mg/kg/injection, schedule: Q01DX011 (ip), vehicle: carboxymethylcellulose (CMC)) 6 of 10; (dose: 500.0 mg/kg/injection, schedule: Q01DX011 (ip), vehicle: methylcellulose (MC)) 6 of 10.
Turning to `CCC(=O)O[C@H]1CC[C@H]2[C@@H]3CCC4=CC(=O)CC[C@]4(C)[C@H]3CC[C@]12C`, the survivor count runs as follows: (dose: 400.0 mg/kg/injection, schedule: Q01DX011 (sc), vehicle: steroid suspending solution) 1 of 10; under setting [2], 1 of 10; (dose: 666.66 mg/kg/injection, schedule: Q01DX011 (sc), vehicle: steroid suspending solution) 2 of 10. In addition, under setting [2], the T/C was 55, 71 [9 of 10 alive], 134 % of control.
As to `CC(=O)OCC(=O)[C@@]1(O)CC[C@H]2[C@@H]3CCC4=CC(=O)C=C[C@]4(C)[C@@]3(F)[C@@H](O)C[C@@]21C`, the survivor count (dose: 35.0 mg/kg/injection, schedule: Q01DX011 (sc), vehicle: steroid suspending solution) is listed as 2 of 12.
As for `CCCOP(=S)(N1CC1C)N1CC1(C)C` (stereo unspecified), the T/C reads like this: (dose: 0.75 mg/kg/injection, schedule: Q01DX011 (ip), vehicle: carboxymethylcellulose (CMC)) 141 and 149 % of control [9 of 10 alive]; under setting [3], 45, 131, 144 % of control [8 of 10 alive]. Besides, under setting [3], the survivor count is given as 6 of 10.
Consider `O=[N+]([O-])c1cc([N+](=O)[O-])c(NN(c2ccccc2)c2ccccc2)c([N+](=O)[O-])c1`, for which the T/C (dose: 12.5 mg/kg/injection, schedule: Q01DX011 (ip), vehicle: other) was 136 % of control. Besides, under “dose: 50.0 mg/kg/injection, schedule: Q01DX011 (ip), vehicle: other”, the survivor count was 6 of 10.
On to `Nc1nc(N)c(N)c(Nc2ccc(Br)cc2)n1`, for which the survivor count (dose: 62.0 mg/kg/injection, schedule: Q01DX011 (ip), vehicle: saline) is on record as 2 of 10.
In the case of `COc1cc(C(=O)[O][Hg][CH2]C2CC(O)CC([CH2][Hg][O]C(=O)c3cc(OC)c(OC)c(OC)c3)O2)cc(OC)c1OC` (stereo unspecified), the survivor count (dose: 50.0 mg/kg/injection, schedule: Q01DX011 (ip), vehicle: carboxymethylcellulose (CMC)) is on record as 5 of 10; the survivor count under setting [4] is given as 0 of 10; the survivor count (dose: 200.0 mg/kg/injection, schedule: Q01DX011 (ip), vehicle: carboxymethylcellulose (CMC)) is on record as 0 of 10.
Turning to `O=C(NCCCCCCCCCCNC(=O)N1CC1)N1CC1`, the survivor count runs as follows: (dose: 2.0 mg/kg/injection, schedule: Q01DX011 (ip), vehicle: carboxymethylcellulose (CMC)) 2 of 10; (dose: 4.0 mg/kg/injection, schedule: Q01DX011 (ip), vehicle: carboxymethylcellulose (CMC)) 0 of 10.
Take `CC(=O)OCC(=O)[C@@]1(O)CC[C@H]2[C@@H]3CCC4=CC(=O)CC[C@]4(C)[C@H]3[C@@H](O)C[C@@]21C`: the T/C (dose: 1.87 mg/kg/injection, schedule: Q01DX011 (sc), vehicle: steroid suspending solution) is 127 % of control. Further, the survivor count (dose: 40.0 mg/kg/injection, schedule: Q01DX006 (iv), vehicle: steroid suspending solution) was 2 of 10; the survivor count (dose: 80.0 mg/kg/injection, schedule: Q01DX006 (iv), vehicle: steroid suspending solution) is 6 of 10; the survivor count (dose: 140.0 mg/kg/injection, schedule: Q07DX002 (sc), vehicle: steroid suspending solution) is 6 of 10; the survivor count (dose: 250.0 mg/kg/injection, schedule: Q01DX011 (sc), vehicle: steroid suspending solution) is listed as 5 of 10; the survivor count (dose: 320.0 mg/kg/injection, schedule: Q01DX006 (iv), vehicle: steroid suspending solution) was 0 of 10; the survivor count (dose: 560.0 mg/kg/injection, schedule: Q07DX002 (sc), vehicle: steroid suspending solution) is reported as 6 of 10.
Take `Nc1ccc2cc(S(=O)(=O)O)cc(O)c2c1N=Nc1ccc(NC(=O)c2ccc(C(=O)Nc3ccc(N=Nc4c(N)ccc5cc(S(=O)(=O)O)cc(O)c45)c(S(=O)(=O)O)c3)cc2)cc1S(=O)(=O)O`: the survivor count by setting is: (dose: 30.0 mg/kg/injection, schedule: Q01DX011 (ip), vehicle: carboxymethylcellulose (CMC)) 1 of 10; under setting [1], 1 of 10.
`C[C@]12CCC(=O)C=C1CC[C@H]1[C@@H]3CC[C@@]4(OCC4=O)[C@@]3(C)C[C@H](O)[C@@]12F`: the survivor count by setting is: (dose: 300.0 mg/kg/injection, schedule: Q01DX011 (sc), vehicle: steroid suspending solution) 3 of 10; (dose: 600.0 mg/kg/injection, schedule: Q01DX011 (sc), vehicle: steroid suspending solution) 0 of 10.
Turning to `N#[N+]c1nc2ncnc(N)c2[nH]1`, the survivor count (dose: 50.0 mg/kg/injection, schedule: Q01DX011 (ip), vehicle: saline) was 2 of 12.
`CCC(C)Cn1cnc2c(SCc3ccccn3)nc(N)nc21` (stereo unspecified): the T/C (dose: 8.1 mg/kg/injection, schedule: Q01DX011 (ip), vehicle: methylcellulose (MC)) is 140 % of control [9 of 10 alive]. The survivor count (dose: 20.0 mg/kg/injection, schedule: Q01DX011 (ip), vehicle: methylcellulose (MC)) was 6 of 10.
As to `O=NN1CCN(N=O)CC1`, the T/C (dose: 23.5 mg/kg/injection, schedule: Q01DX011 (ip), vehicle: carboxymethylcellulose (CMC)) is 141 % of control. For the same compound, the survivor count is, setting by setting: (dose: 47.0 mg/kg/injection, schedule: Q01DX011 (ip), vehicle: carboxymethylcellulose (CMC)) 1 of 10 and 4 of 10; (dose: 49.7 mg/kg/injection, schedule: Q01DX011 (ip), vehicle: carboxymethylcellulose (CMC)) 3 of 10; (dose: 58.9 mg/kg/injection, schedule: Q01DX011 (ip), vehicle: carboxymethylcellulose (CMC)) 5 of 10.
`Nc1nc(SCc2ccccc2Cl)c2ncn(C3CCCCC3)c2n1`: the T/C (dose: 225.0 mg/kg/injection, schedule: Q01DX011 (ip), vehicle: methylcellulose (MC)) was 126 % of control.
`CC1([CH2][Hg][I])OCCOC1[CH2][Hg][I]` (stereo unspecified): the survivor count is given as 6 of 10 (dose: 21.9 mg/kg/injection, schedule: Q01DX011 (ip), vehicle: saline); 6 of 10 (dose: 22.0 mg/kg/injection, schedule: Q01DX011 (ip), vehicle: carboxymethylcellulose (CMC)); 3 of 10 (dose: 43.8 mg/kg/injection, schedule: Q01DX011 (ip), vehicle: saline); 4 of 10 (dose: 44.0 mg/kg/injection, schedule: Q01DX011 (ip), vehicle: carboxymethylcellulose (CMC)); 0 of 10 (dose: 87.6 mg/kg/injection, schedule: Q01DX011 (ip), vehicle: saline); 0 of 10 (dose: 88.0 mg/kg/injection, schedule: Q01DX011 (ip), vehicle: carboxymethylcellulose (CMC)).
Take `CN(CC#N)/N=N/c1nc[nH]c1C(N)=O`: the survivor count is, setting by setting: (dose: 150.0 mg/kg/injection, schedule: Q01DX011 (ip), vehicle: carboxymethylcellulose (CMC)) 6 of 10; (dose: 300.0 mg/kg/injection, schedule: Q01DX011 (ip), vehicle: carboxymethylcellulose (CMC)) 0 of 10.
With `Cc1ccc(C)c(N=Nc2c(S(=O)(=O)O)cc3cc(NC(=O)Nc4ccc5c(O)c(N=Nc6ccc7cc(S(=O)(=O)O)ccc7c6)c(S(=O)(=O)O)cc5c4)ccc3c2O)c1`, the survivor count (dose: 65.0 mg/kg/injection, schedule: Q01DX011 (ip), vehicle: carboxymethylcellulose (CMC)) is given as 5 of 10 and the survivor count under setting [4] is 3 of 10.
